Data taken from patent US20260209320A1.
Substitutions are numbered along the chain they refer to. Results are given in words; binding and its absence hold for the method and conditions named.

B1: ATL_0006184 (antibody, V domains shown)
VH: EVQLVESGGGLVKPGGSLRLSCAASGFTFNKAWMSWVRQAPGKGLEWVGRIKSGIDAGTTDYAAPVKGRFTISRDDSKATLYLQMNSLKTEDTAVYYCTPPPYYYYGLDVWGQGTTVTVSS
VL: QSALTQPASVSGSPGQSITISCTGTSSDVGGYKLVSWYQQHPGRAPKLMIYEVSKRPSGVSSRFSGSKSGSTASLTISGLQAEDEADYYCSSYAGSSVVFGGGTKLTVL
B2: ATL_0006186 (antibody, V domains shown)
VH: B1 VH with D109N
VL: B1 VL
B3: ATL_0006374 (antibody, V domains shown)
VH: EVQLVESGGGLVKPGGSLRLSCAASGFTFNKAWMSWVRQAPGKGLEWVGRIKSGIDAGTTDYAAPVKGRFTISRDDSKNTLYLQMNSLKTEDTAVYWCVPPPYYYYYGLDVWGQGTTVTVSS
VL: QSALTQPRSVSGSPGQSVTISCTGTSSDVGSYNLVSWYQQHPGKAPKLMIYEVNKRPSGVPDRFSGSKSGATASLTISGLQAEDEADYYCVSYGGTENVFGTGTKVTVL
B4: ATL_0006377 (antibody, V domains shown)
VH: B3 VH with W97Y, P101S
VL: B3 VL with G94A, E97A
B5: ATL_0006376 (antibody, V domains shown)
VH: B3 VH with W97Y, Y103F
VL: B3 VL
B6: ATL_0006378 (antibody, V domains shown)
VH: B3 VH with W97Y, P101S
VL: B3 VL
B7: ATL_0006183 (antibody, V domains shown)
VH: B1 VH with A79N
VL: B3 VL with V91G, G94A, E97A
B8: ATL_0006185 (antibody, V domains shown)
VH: B1 VH with A79N, D109N
VL: B3 VL with V91G, G94A, E97A
B9: ATL_0006375 (antibody, V domains shown)
VH: B3 VH with W97Y
VL: B3 VL

These binders were tested against lysozyme (assay: lysozyme ELISA (antigen control of the sandwich ELISA)).
With B1 the binding was “no binding”. B2 was tested, and the binding was “no binding”. For B3, the binding was “no binding”. For B4, the binding was “no binding”. For B5, the binding was “no binding”. B6 was tested, and the binding was “no binding”. In the case of B7, the binding is reported as “no binding”. In the case of B8, the binding is reported as “no binding”. B9 was tested, and the binding was “no binding”.
